Measurements: patent US8163699B2, “Method for the treatment of valvular disease” (Montreal Heart Institute, priority 2006, dated 2012)

Experiment: Serum lipids and calcemia in rabbit model of aortic valve stenosis
Assay type: in vivo, New-Zealand White rabbits
Details: treated group, at the end of treatment
Procedure: The animals then returned to a standard diet (without vitamin D2) to mimic cholesterol lowering and were randomly assigned to receive either saline (control group, n=8) or the ApoA-1 mimetic peptide (treated group, n=7). Rabbits were given injections through the marginal ear vein of saline or of the ApoA-1 mimetic peptide (25 mg/kg) complexed with phospholipids (Compound A), 3 times per week for 2 weeks. Echocardiograms were performed serially (see Echocardiography Methods) every 3 to 4 days throughout the randomized treatment period. Two days after their last infusion, the animals underwent a final echocardiogram and were sacrificed, and the aortic valves were harvested for histological analyses. Blood samples were obtained through the ear artery at baseline, prior to treatment and before sacrifice. Total cholesterol, HDL cholesterol, triglycerides and calcium levels were measured with an automated filter photometer system (Dimension RxL Max, Dade Behring, Ill.).
Data are presented as mean±standard deviation. For the “pre-treatment” period, repeated measures analysis of variance (ANOVA) models were used to study the echocardiographic and serum measurements across time and between groups (treated vs. control groups). […] Relationships between histomorphometry and echocardiographic variables were evaluated using Pearson correlation coefficient. […]

With “H-Pro-Val-Leu-Asp-Leu-Phe-Arg-Glu-Leu-Leu-Asn-Glu-Leu-Leu-Glu-Ala-Leu-Lys-Gln-Lys-Leu-Lys-OH [ApoA-1 mimetic peptide]” the calcemia was 3.22 ± 0.12 mmol/L.
